Results as given in the supplement of paper PMC10849652.
Some of the results follow.

Protein sequences, listed by entry. Tags and fused reporters are not part of them. Lines headed by an entry give the natural chain unless they say otherwise; changes in a name come on top.
UniProt O00151: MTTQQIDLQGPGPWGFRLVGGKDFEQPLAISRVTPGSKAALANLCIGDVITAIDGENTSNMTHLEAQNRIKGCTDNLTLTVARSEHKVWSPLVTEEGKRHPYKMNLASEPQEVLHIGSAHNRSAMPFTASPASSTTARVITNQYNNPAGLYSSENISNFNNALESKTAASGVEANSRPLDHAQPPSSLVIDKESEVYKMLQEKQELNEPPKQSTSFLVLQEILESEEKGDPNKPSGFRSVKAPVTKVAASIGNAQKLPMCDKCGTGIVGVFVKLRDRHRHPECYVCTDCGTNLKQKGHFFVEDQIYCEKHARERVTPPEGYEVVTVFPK
UniProt O75914, whole entry, looked up: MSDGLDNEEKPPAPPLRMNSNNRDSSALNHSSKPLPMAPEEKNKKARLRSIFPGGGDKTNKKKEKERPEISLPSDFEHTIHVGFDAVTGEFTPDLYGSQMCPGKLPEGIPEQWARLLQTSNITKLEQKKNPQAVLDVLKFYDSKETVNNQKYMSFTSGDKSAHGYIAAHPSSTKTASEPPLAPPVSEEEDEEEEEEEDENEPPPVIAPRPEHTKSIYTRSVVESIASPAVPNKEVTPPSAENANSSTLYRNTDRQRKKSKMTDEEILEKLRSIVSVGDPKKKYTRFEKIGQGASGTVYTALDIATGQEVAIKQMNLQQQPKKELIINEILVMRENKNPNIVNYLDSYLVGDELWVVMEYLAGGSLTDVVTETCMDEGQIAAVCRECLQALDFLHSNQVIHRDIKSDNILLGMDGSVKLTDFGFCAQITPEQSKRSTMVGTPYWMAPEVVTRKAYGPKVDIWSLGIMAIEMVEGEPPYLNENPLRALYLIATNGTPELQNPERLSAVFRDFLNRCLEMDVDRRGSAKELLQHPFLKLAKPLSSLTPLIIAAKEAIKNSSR
UniProt Q9NWT1: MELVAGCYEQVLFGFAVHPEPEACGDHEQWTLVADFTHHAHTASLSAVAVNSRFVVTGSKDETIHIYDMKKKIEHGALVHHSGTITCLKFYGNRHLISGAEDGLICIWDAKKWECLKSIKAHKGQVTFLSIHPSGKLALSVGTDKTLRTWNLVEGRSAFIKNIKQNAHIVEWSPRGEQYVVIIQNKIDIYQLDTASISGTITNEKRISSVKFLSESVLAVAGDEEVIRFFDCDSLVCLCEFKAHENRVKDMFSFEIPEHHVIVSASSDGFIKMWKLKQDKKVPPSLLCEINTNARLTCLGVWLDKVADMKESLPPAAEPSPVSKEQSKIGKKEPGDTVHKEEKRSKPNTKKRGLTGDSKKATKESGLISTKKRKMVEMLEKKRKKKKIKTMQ
UniProt Q8N5Y8: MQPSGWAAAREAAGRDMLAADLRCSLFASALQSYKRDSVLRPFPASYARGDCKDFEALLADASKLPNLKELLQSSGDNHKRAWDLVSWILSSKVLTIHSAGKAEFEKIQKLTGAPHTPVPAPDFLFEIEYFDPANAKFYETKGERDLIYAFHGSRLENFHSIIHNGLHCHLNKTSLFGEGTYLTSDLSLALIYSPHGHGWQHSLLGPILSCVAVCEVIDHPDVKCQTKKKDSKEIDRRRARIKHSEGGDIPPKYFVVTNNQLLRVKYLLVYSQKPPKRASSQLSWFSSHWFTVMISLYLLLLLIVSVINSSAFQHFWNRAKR
UniProt O60683: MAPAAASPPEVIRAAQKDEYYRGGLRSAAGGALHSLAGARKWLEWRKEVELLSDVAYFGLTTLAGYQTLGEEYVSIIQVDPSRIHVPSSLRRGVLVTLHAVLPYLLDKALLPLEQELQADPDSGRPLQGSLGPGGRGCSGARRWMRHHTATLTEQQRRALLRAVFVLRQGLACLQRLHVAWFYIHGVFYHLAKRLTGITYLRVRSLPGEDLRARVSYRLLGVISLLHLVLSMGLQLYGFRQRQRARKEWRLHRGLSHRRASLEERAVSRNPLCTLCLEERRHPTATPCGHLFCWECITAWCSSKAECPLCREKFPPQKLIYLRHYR
UniProt Q86YH6: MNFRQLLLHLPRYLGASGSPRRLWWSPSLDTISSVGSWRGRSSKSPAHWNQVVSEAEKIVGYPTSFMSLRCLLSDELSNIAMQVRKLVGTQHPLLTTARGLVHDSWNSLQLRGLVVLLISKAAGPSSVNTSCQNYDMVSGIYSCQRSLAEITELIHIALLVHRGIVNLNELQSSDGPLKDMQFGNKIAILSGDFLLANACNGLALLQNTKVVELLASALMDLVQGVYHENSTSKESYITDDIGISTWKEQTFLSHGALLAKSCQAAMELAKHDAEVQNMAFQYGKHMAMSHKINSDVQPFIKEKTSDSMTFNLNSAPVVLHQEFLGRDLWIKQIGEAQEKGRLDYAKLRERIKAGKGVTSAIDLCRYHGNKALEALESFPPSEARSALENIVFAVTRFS
UniProt Q9BVG4: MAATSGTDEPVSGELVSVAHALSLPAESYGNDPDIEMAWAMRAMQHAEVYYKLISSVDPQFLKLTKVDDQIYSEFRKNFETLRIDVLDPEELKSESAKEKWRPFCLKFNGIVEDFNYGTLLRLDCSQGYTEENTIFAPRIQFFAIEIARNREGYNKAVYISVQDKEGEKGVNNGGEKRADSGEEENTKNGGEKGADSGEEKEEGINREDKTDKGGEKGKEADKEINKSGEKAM
UniProt Q15102: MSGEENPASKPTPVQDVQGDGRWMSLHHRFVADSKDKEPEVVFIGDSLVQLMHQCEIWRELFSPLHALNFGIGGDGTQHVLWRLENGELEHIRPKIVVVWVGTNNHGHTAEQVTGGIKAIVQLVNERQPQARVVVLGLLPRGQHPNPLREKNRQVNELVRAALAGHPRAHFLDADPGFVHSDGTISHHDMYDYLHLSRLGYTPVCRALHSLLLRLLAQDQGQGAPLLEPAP
UniProt P05166: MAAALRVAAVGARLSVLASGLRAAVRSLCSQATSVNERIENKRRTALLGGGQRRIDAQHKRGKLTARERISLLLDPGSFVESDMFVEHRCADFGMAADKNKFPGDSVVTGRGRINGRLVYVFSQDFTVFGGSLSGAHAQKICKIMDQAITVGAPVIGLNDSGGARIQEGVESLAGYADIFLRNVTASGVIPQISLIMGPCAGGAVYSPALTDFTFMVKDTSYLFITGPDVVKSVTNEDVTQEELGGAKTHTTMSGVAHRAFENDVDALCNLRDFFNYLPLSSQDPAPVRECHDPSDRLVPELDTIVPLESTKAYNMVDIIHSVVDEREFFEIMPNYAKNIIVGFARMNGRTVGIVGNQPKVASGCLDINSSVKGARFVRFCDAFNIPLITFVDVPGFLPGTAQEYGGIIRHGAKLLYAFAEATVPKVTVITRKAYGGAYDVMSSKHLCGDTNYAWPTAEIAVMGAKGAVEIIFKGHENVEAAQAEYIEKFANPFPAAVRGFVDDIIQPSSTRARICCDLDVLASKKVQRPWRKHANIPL
UniProt O14737: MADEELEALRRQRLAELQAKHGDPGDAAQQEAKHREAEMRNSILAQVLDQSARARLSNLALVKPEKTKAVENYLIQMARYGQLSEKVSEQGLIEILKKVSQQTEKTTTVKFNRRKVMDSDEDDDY
UniProt Q92968: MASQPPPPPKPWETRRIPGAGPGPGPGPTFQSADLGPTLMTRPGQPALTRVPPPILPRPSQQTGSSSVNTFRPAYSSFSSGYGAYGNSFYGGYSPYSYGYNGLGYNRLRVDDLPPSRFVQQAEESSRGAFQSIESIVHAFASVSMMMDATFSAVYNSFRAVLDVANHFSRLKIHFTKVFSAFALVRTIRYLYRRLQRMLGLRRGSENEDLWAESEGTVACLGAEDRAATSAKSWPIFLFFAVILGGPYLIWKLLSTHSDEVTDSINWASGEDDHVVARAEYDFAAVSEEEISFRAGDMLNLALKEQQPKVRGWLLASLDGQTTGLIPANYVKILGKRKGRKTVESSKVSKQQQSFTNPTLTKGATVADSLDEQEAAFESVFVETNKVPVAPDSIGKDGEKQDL
UniProt Q9H813: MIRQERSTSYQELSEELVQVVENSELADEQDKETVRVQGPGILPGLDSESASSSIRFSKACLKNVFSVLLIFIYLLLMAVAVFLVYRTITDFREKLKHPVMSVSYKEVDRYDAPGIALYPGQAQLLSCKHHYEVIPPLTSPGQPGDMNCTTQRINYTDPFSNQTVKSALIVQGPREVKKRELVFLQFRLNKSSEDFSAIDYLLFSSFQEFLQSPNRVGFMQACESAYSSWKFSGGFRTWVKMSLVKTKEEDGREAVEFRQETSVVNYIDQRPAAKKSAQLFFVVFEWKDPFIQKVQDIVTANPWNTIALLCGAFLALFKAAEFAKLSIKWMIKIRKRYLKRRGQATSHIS
UniProt Q9BYG5: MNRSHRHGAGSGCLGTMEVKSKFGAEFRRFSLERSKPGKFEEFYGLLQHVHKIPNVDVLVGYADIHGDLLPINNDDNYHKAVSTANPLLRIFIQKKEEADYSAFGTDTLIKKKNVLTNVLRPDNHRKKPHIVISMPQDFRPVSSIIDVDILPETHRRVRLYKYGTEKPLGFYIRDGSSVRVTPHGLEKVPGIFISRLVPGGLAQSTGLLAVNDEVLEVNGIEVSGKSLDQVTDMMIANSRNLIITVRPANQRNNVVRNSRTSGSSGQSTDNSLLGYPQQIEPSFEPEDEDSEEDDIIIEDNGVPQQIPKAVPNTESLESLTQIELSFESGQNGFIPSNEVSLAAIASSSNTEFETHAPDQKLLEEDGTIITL
UniProt Q9NTI5: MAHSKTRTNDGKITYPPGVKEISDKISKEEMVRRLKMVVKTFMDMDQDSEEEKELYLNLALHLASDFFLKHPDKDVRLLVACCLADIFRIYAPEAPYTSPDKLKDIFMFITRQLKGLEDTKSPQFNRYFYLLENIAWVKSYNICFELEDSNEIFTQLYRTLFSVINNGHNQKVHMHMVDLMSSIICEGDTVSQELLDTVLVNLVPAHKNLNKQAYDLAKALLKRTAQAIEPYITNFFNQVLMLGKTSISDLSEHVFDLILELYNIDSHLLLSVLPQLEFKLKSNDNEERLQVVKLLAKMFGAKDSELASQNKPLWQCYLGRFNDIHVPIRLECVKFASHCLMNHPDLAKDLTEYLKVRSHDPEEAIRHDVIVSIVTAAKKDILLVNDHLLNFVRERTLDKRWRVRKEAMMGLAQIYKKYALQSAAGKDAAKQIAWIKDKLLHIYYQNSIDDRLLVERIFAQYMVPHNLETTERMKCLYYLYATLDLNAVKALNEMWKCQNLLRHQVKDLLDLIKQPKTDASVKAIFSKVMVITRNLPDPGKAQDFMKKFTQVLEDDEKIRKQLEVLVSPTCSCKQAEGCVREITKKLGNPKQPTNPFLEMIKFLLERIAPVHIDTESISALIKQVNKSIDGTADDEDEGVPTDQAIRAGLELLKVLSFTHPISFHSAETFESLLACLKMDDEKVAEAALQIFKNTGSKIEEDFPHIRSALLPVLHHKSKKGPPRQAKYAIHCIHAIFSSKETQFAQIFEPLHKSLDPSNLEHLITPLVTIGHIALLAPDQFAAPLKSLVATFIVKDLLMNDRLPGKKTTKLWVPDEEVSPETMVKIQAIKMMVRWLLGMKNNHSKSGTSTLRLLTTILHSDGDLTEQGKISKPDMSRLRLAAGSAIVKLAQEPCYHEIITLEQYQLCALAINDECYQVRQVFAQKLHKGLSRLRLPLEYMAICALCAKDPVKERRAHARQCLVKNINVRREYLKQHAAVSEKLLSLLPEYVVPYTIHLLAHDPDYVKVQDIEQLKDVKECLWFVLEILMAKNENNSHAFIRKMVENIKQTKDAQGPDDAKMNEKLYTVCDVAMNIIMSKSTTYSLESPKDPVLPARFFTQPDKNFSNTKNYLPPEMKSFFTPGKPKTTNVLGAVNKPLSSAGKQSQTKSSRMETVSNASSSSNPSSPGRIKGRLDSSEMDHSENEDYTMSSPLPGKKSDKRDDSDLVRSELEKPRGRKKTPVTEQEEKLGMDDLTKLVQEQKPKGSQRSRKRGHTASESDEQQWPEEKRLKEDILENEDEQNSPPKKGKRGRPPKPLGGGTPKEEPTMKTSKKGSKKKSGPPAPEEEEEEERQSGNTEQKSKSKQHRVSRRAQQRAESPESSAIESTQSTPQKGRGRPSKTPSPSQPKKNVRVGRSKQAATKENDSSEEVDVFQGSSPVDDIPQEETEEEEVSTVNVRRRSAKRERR
UniProt Q9BRX2, whole entry, looked up: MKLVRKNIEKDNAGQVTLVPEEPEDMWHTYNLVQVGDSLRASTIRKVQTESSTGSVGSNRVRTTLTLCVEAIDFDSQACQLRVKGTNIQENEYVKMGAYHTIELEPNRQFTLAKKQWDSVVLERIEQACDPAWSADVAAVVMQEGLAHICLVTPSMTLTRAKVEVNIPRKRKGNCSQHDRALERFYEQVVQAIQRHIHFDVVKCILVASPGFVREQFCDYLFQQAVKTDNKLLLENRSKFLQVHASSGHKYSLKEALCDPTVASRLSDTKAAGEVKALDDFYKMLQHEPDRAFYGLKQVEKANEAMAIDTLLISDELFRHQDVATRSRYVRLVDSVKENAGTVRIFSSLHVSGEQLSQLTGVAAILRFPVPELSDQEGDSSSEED
UniProt H7BZJ3: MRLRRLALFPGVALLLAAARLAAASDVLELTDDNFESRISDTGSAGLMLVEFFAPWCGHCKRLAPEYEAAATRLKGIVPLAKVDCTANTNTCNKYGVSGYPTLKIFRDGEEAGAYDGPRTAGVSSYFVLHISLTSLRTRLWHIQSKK

What was measured:
Test in all cases: log2 fold change, soluble protein after heating vs DMSO (PISA); higher = thermal stabilisation; K562 cells, 10 uM, 30 min; active = over 0.2 and 3.5 SD of the protein, either way, in both replicates (recomputed)
saracatinib = compound: CN1CCN(CCOc2cc(OC3CCOCC3)c3c(Nc4c(Cl)ccc5c4OCO5)ncnc3c2)CC1 [saracatinib]
How it was run: (§1)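 K562 cells at 2×10^6 cells/mL were given 10 μM compound for 30 min. Aliquots then went through 3 min of heating across 48°C-58°C, were pooled, and were extracted in PBS with 0.5% NP-40 at 4°C, and the supernatant after 21,000xg for 90 min was quantified by TMTpro 16plex LC-MS/MS with channel sums equalised. Thermal stability relative to control samples, from duplicates, is given as log2 fold change.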

sotrastaurin = compound: CN1CCN(c2nc(C3=C(c4c[nH]c5ccccc45)C(=O)NC3=O)c3ccccc3n2)CC1 [sotrastaurin]
How it was run: as §1

alvocidib = compound: CN1CC[C@H](c2c(O)cc(O)c3c(=O)cc(-c4ccccc4Cl)oc23)[C@H](O)C1 [alvocidib]
How it was run: as §1

Tubastatin A = compound: CN1CCc2c(c3ccccc3n2Cc2ccc(C(=O)NO)cc2)C1 [Tubastatin A]
How it was run: as §1

[1] = compound: CNC(=O)C1=CC=CC=C1NC2=NC(=NC=C2Cl)NC3=C(C=C(C=C3)N4CCOCC4)OC
How it was run: as §1

defactinib = compound: CNC(=O)c1ccc(Nc2ncc(C(F)(F)F)c(NCc3nccnc3N(C)S(C)(=O)=O)n2)cc1 [defactinib]
How it was run: as §1

rucaparib = compound: CNCc1ccc(-c2[nH]c3cc(F)cc4c3c2CCNC4=O)cc1 [rucaparib]
How it was run: as §1

[2] = compound: CNc1nc(-c2ccc3c(N)n[nH]c3c2)cc(N2C[C@@H](C(=O)NC3CCCCC3)CC[C@H]2C)n1
How it was run: as §1

encorafenib = compound: COC(=O)N[C@@H](C)CNc1nccc(-c2cn(C(C)C)nc2-c2cc(Cl)cc(NS(C)(=O)=O)c2F)n1 [encorafenib]
How it was run: as §1

[3] = compound: COC(=O)[C@H](CCSC)NC(=O)C1=C(C=C(C=C1)NC[C@H](CS)N)C2=CC=CC=C2
How it was run: as §1

Measured: log2 fold change

PDLIM1 (UniProt O00151)
inactive: saracatinib 0.042 | sotrastaurin 0.015 | alvocidib -0.025 | Tubastatin A -0.01 | [1] -0.016 | defactinib -0.001 | rucaparib -0.009 | [2] -0.024 | encorafenib -0.035 | [3] 0.035

PAK3 isoform 3 (UniProt O75914)
inactive: saracatinib 0.086 | sotrastaurin -0.003 | alvocidib -0.026 | Tubastatin A 0.001 | [1] 0.002 | defactinib -0.015 | rucaparib -0.038 | [2] -0.011 | encorafenib 0.029 | [3] -0.022

PAIP1 (UniProt Q9H074)
inactive: saracatinib 0.039 | sotrastaurin -0.006 | alvocidib -0.04 | Tubastatin A 0.003 | [1] 0.021 | defactinib -0.027 | rucaparib -0.01 | [2] -0.017 | encorafenib -0.044 | [3] 0.022

PAK1IP1 (UniProt Q9NWT1)
inactive: saracatinib -0.061 | sotrastaurin 0.077 | alvocidib 0.389 | Tubastatin A 0.103 | [1] 0.027 | defactinib 0.529 | rucaparib 0.35 | [2] 0.104 | encorafenib 0.162 | [3] 0.023

PDAP1 (UniProt Q13442)
inactive: saracatinib 0.055 | sotrastaurin 0.052 | alvocidib 0.037 | Tubastatin A -0.031 | [1] -0.028 | defactinib -0.011 | rucaparib -0.038 | [2] 0.015 | encorafenib 0.002 | [3] 0.032

PAPOLA (UniProt P51003)
inactive: saracatinib 0.035 | sotrastaurin 0.007 | alvocidib -0.049 | Tubastatin A -0.064 | [1] -0.024 | defactinib -0.06 | rucaparib 0.024 | [2] -0.029 | encorafenib -0.002 | [3] -0.023

PARP16 isoform 3 (UniProt Q8N5Y8)
inactive: saracatinib 0.175 | sotrastaurin -0.038 | Tubastatin A 0.005 | [1] -0.009 | defactinib 0.046 | rucaparib 0.198 | [2] -0.042 | encorafenib -0.087 | [3] -0.005

PEX10 isoform 2 (UniProt O60683)
inactive: saracatinib -0.122 | sotrastaurin -0.013 | alvocidib 0.036 | Tubastatin A -0.271 | [2] 0.036

PDSS2 (UniProt Q86YH6)
inactive: saracatinib 0.159 | sotrastaurin 0.218 | Tubastatin A -0.013 | [1] -0.019 | defactinib -0.076 | rucaparib 0.07 | [2] -0.025 | encorafenib -0.154 | [3] -0.042

PBDC1 (UniProt Q9BVG4)
inactive: saracatinib 0.039 | sotrastaurin -0.056 | alvocidib -0.062 | Tubastatin A 0.018 | [1] 0.005 | defactinib -0.061 | rucaparib 0.069 | [2] -0.052 | encorafenib 0.012 | [3] -0.044

PAFAH1B3 (UniProt Q15102)
inactive: saracatinib -0.109 | sotrastaurin -0.034 | Tubastatin A 0.026 | [1] 0.001 | defactinib 0.021 | rucaparib 0.049 | [2] 0.002 | encorafenib -0.006 | [3] -0.071

PCCB isoform 2 (UniProt P05166)
inactive: saracatinib -0.003 | sotrastaurin 0.068 | alvocidib -0.02 | Tubastatin A -0.035 | [1] -0.017 | defactinib -0.004 | rucaparib -0.029 | [2] 0.001 | encorafenib 0.002 | [3] 0.001

PDCD5 (UniProt O14737)
inactive: saracatinib 0.009 | sotrastaurin -0.085 | alvocidib 0.025 | Tubastatin A 0.003 | [1] -0.038 | defactinib 0.007 | rucaparib -0.054 | [2] -0.023 | encorafenib 0.067 | [3] 0.009

PEX13 (UniProt Q92968)
inactive: saracatinib -0.067 | sotrastaurin -0.083 | Tubastatin A 0.061 | [1] -0.061 | defactinib -0.011 | rucaparib -0.058 | [2] 0.008 | encorafenib 0.047 | [3] -0.087

PACC1 (UniProt Q9H813)
inactive: saracatinib -0.002 | sotrastaurin 0.144 | alvocidib -0.09 | Tubastatin A -0.04 | defactinib -0.038 | [2] 0.1 | [3] -0.004

PDE6C (UniProt P51160)
inactive: saracatinib 0.112 | sotrastaurin 0.006 | alvocidib -0.185 | Tubastatin A -0.166 | defactinib -0.23 | rucaparib -0.277 | [2] 0.026 | encorafenib 0.047 | [3] -0.17

PARD6B (UniProt Q9BYG5)
inactive: saracatinib 0.037 | sotrastaurin -0.06 | alvocidib -0.306 | Tubastatin A -0.111 | [1] 0.036 | defactinib -0.085 | rucaparib 0.119 | [2] 0.015 | encorafenib -0.024 | [3] -0.205

PANK3 (UniProt Q9H999)
inactive: saracatinib 0.018 | sotrastaurin 0.045 | alvocidib -0.087 | Tubastatin A 0.064 | [1] -0.014 | rucaparib -0.401 | [2] -0.018 | encorafenib 0.028

PDS5B (UniProt Q9NTI5)
inactive: saracatinib -0.134 | sotrastaurin 0.039 | Tubastatin A 0.14 | [1] -0.169 | defactinib -0.101 | rucaparib -0.088 | [2] 0.014 | encorafenib 0 | [3] 0.032

PELO (UniProt Q9BRX2)
inactive: saracatinib -0.079 | sotrastaurin -0.218 | Tubastatin A 0.121 | [1] -0.122 | defactinib -0.058 | rucaparib 0.299 | [2] 0.148 | encorafenib 0.137 | [3] 0.061

PC (UniProt P11498)
inactive: saracatinib -0.088 | sotrastaurin -0.033 | Tubastatin A 0.001 | [1] -0.023 | defactinib -0.113 | rucaparib 0.043 | [2] 0.09 | encorafenib -0.044 | [3] -0.076

2 neighbouring records from above:
PELO (UniProt Q9BRX2)
inactive: saracatinib -0.079 | sotrastaurin -0.218 | Tubastatin A 0.121 | [1] -0.122 | defactinib -0.058 | rucaparib 0.299 | [2] 0.148 | encorafenib 0.137 | [3] 0.061

PC (UniProt P11498)
inactive: saracatinib -0.088 | sotrastaurin -0.033 | Tubastatin A 0.001 | [1] -0.023 | defactinib -0.113 | rucaparib 0.043 | [2] 0.09 | encorafenib -0.044 | [3] -0.076

Next part:

PDCD2L (UniProt Q9BRP1)
inactive: saracatinib -0.072 | sotrastaurin -0.148 | Tubastatin A 0.048 | [1] 0 | defactinib -0.068 | rucaparib 0.038 | [2] -0.031 | encorafenib 0.127 | [3] -0.007

PDIA3 (UniProt H7BZJ3)
inactive: saracatinib 0.056 | sotrastaurin 0.062 | alvocidib 0.045 | Tubastatin A 0.018 | [1] -0.069 | defactinib 0.099 | rucaparib -0.022 | [2] -0.082 | encorafenib 0.047 | [3] -0.043
